Assay results from PubChem BioAssay AID1259415 (National Center for Advancing Translational Sciences (NCATS), 2018).
Out of some 410,000 compounds screened, about 18,000 (4.4%) were called active. Inconclusive results, whose numbers are uncertain, are shown with a selection of clear calls. Rule as the data show it: active = activity change below about -60%; inconclusive = no clear call, values can overlap the other calls; inactive = above about -39%.

Assay: qHTS Assay for inhibitors of the human cytomegalovirus (HCMV)
Settings: HFF cells, HCMV-luciferase reporter, 72 h; at 57.5 µM; active compounds read low
Summary of the method: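 Compounds were evaluated in HFFs infected with an HCMV luciferase reporter virus (MOI 1 PFU/cell). Luciferase in lysates collected 72 h post infection served as the replication measure.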
% is scaled to controls: 0 for no effect and ±100 for the full control effect.

Compound	activity change, negative = inhibition
CCOc1ccc(-n2nc3c(=O)n(CCN4CCCCC4)nc(C)c3c2C)cc1	inconclusive: -40.5%
O=C(c1cccc(S(=O)(=O)N2CCN(c3ccc(F)cc3)CC2)c1)N1CCCC(C(F)(F)F)C1 (stereo unspecified)	active: -61.2%
Cc1cccc(Cn2ccc(-c3ccc(Cl)cc3)c(C#N)c2=O)c1	inactive: -37.8%
COc1cccc(CC(=O)Nc2nc(-c3ccc(OC)c(OC)c3)cs2)c1	inconclusive: -42.1%
CC(C#N)(NC(=O)CN1CCN(S(=O)(=O)c2ccccc2C#N)CC1)C1CC1 (stereo unspecified)	inactive: 0%
COc1ccc(C(CCNCc2ccc(F)cc2)c2ccc(F)cc2)cc1 (stereo unspecified)	inconclusive: -49.6%
CN(Cc1ccc2nsnc2c1)C(=O)C1CCC(=O)N(CCc2ccccc2)C1 (stereo unspecified)	inconclusive: -46.1%
COC(=O)c1c(C)oc2ccc(N(C(=O)c3ccncc3)S(=O)(=O)c3c(C)cc(C)cc3C)cc12	inconclusive: -57.5%
COC(=O)Cn1c(C)c(/C=C/c2cc[n+](C)cc2)c2ccccc21	inconclusive: -45.4%
CCCC(=O)C1=C(O)C(C(=O)OC)C(C)(C)CC1=NCc1ccccc1 (stereo unspecified)	inactive: -37.1%
O=C(c1sccc1Br)N1CCN(Cc2ccc3c(c2)OCO3)CC1	active: -63.2%
Cc1ccc(C(=O)NC2=NCCS2)cc1	inactive: 93.6%
COc1ccc(C(=O)O)cc1S(=O)(=O)N1CCCc2ccccc21	inactive: 53.9%
CCOc1ccc(N2C(=O)C(=O)/C(=C(/O)c3ccccc3)C2c2ccccc2[N+](=O)[O-])cc1 (stereo unspecified)	active: -73%
O=C1Nc2ccccc2/C1=C/c1cnc[nH]1	inconclusive: -50.4%
CN(C)CCN1C(=O)C2C(C(=O)Nc3cc(Cl)cc(Cl)c3)C3C=CC2(O3)C1C(=O)NC1CCCCC1 (stereo unspecified)	inconclusive: -52.3%
COCc1cc(=O)[nH]c(=S)[nH]1	inactive: -26.2%
CCc1ccc(N=C2NC(=O)/C(=C/c3cc(OC)c(O)c(OC)c3)S2)cc1	inconclusive: -40.2%
COc1ccc(OC)c(-c2csc(N(CC3CCCO3)C(=O)C3CCCCC3)n2)c1 (stereo unspecified)	active: -71.5%
Cc1ccc(C)c(Cn2c(=O)cc(C)c3c(C)nn(-c4cccc(F)c4)c32)c1	inactive: 1.99%
CCn1cc(C(=O)NCc2ccc3c(c2)OCO3)c(=O)c2cc(F)c(N3CCN(C(=O)c4ccco4)CC3)cc21	active: -73%
COc1ccccc1NS(=O)(=O)c1cc(NC(=O)c2cccnc2)ccc1N1CCCCC1	inconclusive: -57.9%

Looked up above.
activity change, negative = inhibition with COc1ccc(OC)c(-c2csc(N(CC3CCCO3)C(=O)C3CCCCC3)n2)c1 (stereo unspecified) is entered as active: -71.5%
activity change, negative = inhibition with Cc1cccc(Cn2ccc(-c3ccc(Cl)cc3)c(C#N)c2=O)c1 is entered as inactive: -37.8%
activity change, negative = inhibition with COC(=O)Cn1c(C)c(/C=C/c2cc[n+](C)cc2)c2ccccc21 is entered as inconclusive: -45.4%
activity change, negative = inhibition with O=C1Nc2ccccc2/C1=C/c1cnc[nH]1 is entered as inconclusive: -50.4%
activity change, negative = inhibition with CCOc1ccc(N2C(=O)C(=O)/C(=C(/O)c3ccccc3)C2c2ccccc2[N+](=O)[O-])cc1 (stereo unspecified) is entered as active: -73%
activity change, negative = inhibition with COc1ccccc1NS(=O)(=O)c1cc(NC(=O)c2cccnc2)ccc1N1CCCCC1 is entered as inconclusive: -57.9%

Next compounds follow.

Compound	activity change, negative = inhibition
O=C(NCCc1ccc2c(c1)OCCO2)c1cccc(F)c1	active: -73.2%
COc1cccc(NC(=O)N2CCc3nc(Nc4cc(Cl)cc(Cl)c4)ncc3C2)c1	active: -66.7%
Cc1cccc(C)c1-n1nnnc1C1c2ccccc2C(=O)N1CCc1ccc(O)cc1 (stereo unspecified)	inactive: -20.4%
COc1ccc(/C=C/c2nc(C#N)c(NCCc3ccccc3)o2)cc1OC	inactive: 18.1%
COc1ccc(C(C)=O)cc1CC(C(=O)c1ccc(F)cc1)N(C)C (stereo unspecified)	inactive: -20.5%
COc1ccc(NC(=O)c2c(C)oc3ccc(O)c(CN4CCCCCC4)c23)cc1Cl	active: -94.3%
CC(C)(C)c1ccc(-n2ncc3c2CCCC3NC(=O)c2ccco2)cc1 (stereo unspecified)	inconclusive: -55.3%
Cc1nc2c(-c3ccc(Cl)cc3)cnn2c(N)c1-c1ccc(F)cc1	inconclusive: -49.2%
COc1cc2c(C(=O)O)c(C)n(C)c2cc1Br	inconclusive: -51.2%
COc1ccc(S(=O)(=O)N2CCOCC2)cc1NC(=O)CSc1cccc[n+]1[O-]	inconclusive: -53.4%
CCCCN(C)CCCNC(=O)c1cc(-c2cccnc2)nc2ccccc12	inconclusive: -40.5%
COc1cc(OC)cc(C(=O)N2CCN(c3ccccn3)CC2)c1	inconclusive: -51.4%
O=C(/C=C/c1ccc(Cl)c([N+](=O)[O-])c1)c1cccnc1	active: -80.5%
CCOC(=O)C1CCCN(C(=O)Cn2ncn3c(cc4sc(CC)cc43)c2=O)C1 (stereo unspecified)	inconclusive: -40.6%
COCCCn1c(SCC(=O)Nc2ccccc2OC)nc2c(sc3ccccc32)c1=O	inconclusive: -49.8%
Cc1nc2ccccn2c1C(=O)NNS(=O)(=O)c1ccc(C(C)(C)C)cc1	active: -63.5%
CCCCCC(=O)Nc1ccc(Cc2ccncc2)cc1	inactive: 1.11%
Cc1ccccc1Nc1n[nH]c(=S)s1	inactive: 2.54%
Cc1cccc(C(=O)Nc2ccccc2C(=O)OCc2c(C)noc2C)c1	inconclusive: -40.3%
CCN(Cc1ccccc1)S(=O)(=O)c1ccc(C(=O)N(CCCN(C)C)c2nc3ccc(F)cc3s2)cc1	active: -79.5%
Cc1nn(C2CCCO2)c(=O)nc1N (stereo unspecified)	inconclusive: -49.3%
CCOc1cc(S(=O)(=O)N2CC=C(c3ccc(F)cc3)CC2)c(OCC)cc1-n1cnnn1	inactive: 2.51%

Compound	activity change, negative = inhibition
CC1(C)C(=O)N(CCN2CCC(C(=O)c3ccc(F)cc3)CC2)c2ccccc21	inconclusive: -47.1%
CCCCn1c(SCC(=O)N2CCC(C)CC2)nc2ccsc2c1=O	inconclusive: -45.2%
[O-]/[N+](=C\c1ccc(OC(F)F)cc1)c1ccccc1	inactive: -16.4%
O=C(NNS(=O)(=O)c1ccc(Cl)cc1)c1ccc(S(=O)(=O)N2CCCCC2)cc1	inconclusive: -48.3%
Cc1ccccc1CNC(=O)c1ccc2sc([C@H]3C[C@H](O)[C@@H](CO)O3)nc2c1	inactive: 67.6%
CCn1c(SCC(=O)c2cc(C)ccc2C)nc2cc(S(=O)(=O)N3CCOCC3)ccc21	active: -62.8%
Cc1ccc(NC(=O)C(=O)NCC(c2ccc3c(c2)OCO3)N2CCN(c3ccccc3)CC2)cc1 (stereo unspecified)	inactive: -3.72%
CN1CCc2c(sc(NC(=O)C3CCN(S(=O)(=O)c4cccs4)CC3)c2C(N)=O)C1	inactive: -23.5%
Cc1ccc(NC(=O)CSc2nc(C)c(C)c(C)n2)cc1S(=O)(=O)N1CCOCC1	inconclusive: -43.3%
CN(C(=O)/C=C/c1ccc(F)cc1)C1CCCCC1	inactive: 35.8%
CC(C)N(Cc1nc(-c2ccc(Cl)cc2)no1)C(=O)c1cccs1	active: -60.3%
Cc1ccc(N2CC(C(=O)Nc3ccc(S(=O)(=O)Nc4nccc(C)n4)cc3)CC2=O)cc1 (stereo unspecified)	inconclusive: -42.5%
Cc1cc(C(=O)CSc2nc(N)cc(N)n2)c(C)n1-c1cccc(C(F)(F)F)c1	inconclusive: -51.7%
CC(C)(Cc1ccccc1)/[N+]([O-])=C\c1ccccc1	inconclusive: -56.6%
CCOC(=O)c1c(C)[nH]c(C(=O)COC(=O)C2(C)CC2(Cl)Cl)c1C (stereo unspecified)	inconclusive: -53.7%
CCOc1ccc(C2NC(=O)C(C#N)=C(S)N2c2cccc(C)c2)cc1OC (stereo unspecified)	inconclusive: -52.1%
O=C(OCc1cc(=O)n2cc(Br)ccc2n1)c1ccc(Cl)c(S(=O)(=O)NCc2ccccc2)c1	inconclusive: -41.6%
Cc1ccccc1OC(=O)c1cccc(S(=O)(=O)N2CCN(C)CC2)c1	inactive: -32.5%
CCc1nc(N2CCCC2)c(C#N)c2c1CCCC2	active: -80%
O=C1CSC(c2cccnc2)N1Cc1ccc(Cl)cc1 (stereo unspecified)	inconclusive: -43.6%
CCCC(=O)c1ccc2c(c1)OCCO2	inconclusive: -49%
N#Cc1c(/N=C/c2ccco2)sc2c1CCCCC2	inactive: -18%

Compound	activity change, negative = inhibition
CCCN1CCC(CCOc2ccccc2)(C(=O)OCC)CC1	inactive: 4.11%
Cc1ccc(Nc2ncc(C(=O)N3CCN(c4cccc(Cl)c4)CC3)c3ccccc23)cc1Cl	inactive: 24.5%
O=C(NC(=S)Nc1ccccc1C(=O)O)c1ccc(-c2ccc(Br)cc2)o1	inconclusive: -59.1%
Cn1c(=O)c2c(ncn2CC(=O)OCC(=O)c2ccc(F)c(F)c2)n(C)c1=O	inactive: -26.9%
CCc1nnc(NS(=O)(=O)c2ccc(NCc3ccccc3O)cc2)s1	inactive: 13.1%
O=C(/C=C/c1ccc(F)cc1)N1CCN(S(=O)(=O)/C=C/c2ccccc2)CC1	inconclusive: -47.7%
COc1ccc2sc(-c3ccc(S(C)(=O)=O)cc3)c(C(=O)NCCc3c[nH]c4ccccc34)c2c1	inconclusive: -43.5%
COc1ccc(-n2ccn(CC(=O)NCc3ccc(C)cc3)c(=O)c2=O)cc1OC	inconclusive: -45.2%
COc1ccc2c(-c3ccccc3)cc(SC(C)C(N)=O)nc2c1 (stereo unspecified)	inconclusive: -42.6%
Cc1ccc(C(=O)Nc2ccc3ccccc3n2)cc1	active: -102%
Cc1cc(C(=O)N2CCCC(Nc3ccc(C(C)C)cc3)C2)nn1C (stereo unspecified)	inconclusive: -49.9%
CC(=O)Nc1ccc(S(=O)(=O)NCCC(=O)OC(C)C(=O)NC2(C#N)CCCCC2)cc1 (stereo unspecified)	inactive: 133%
COc1ccc(CC(=O)NCC(c2cccs2)S(=O)(=O)c2ccc(Cl)cc2)cc1 (stereo unspecified)	inconclusive: -57%
COc1ccc(N2CCN(c3nc(-c4cccs4)nc4ccccc34)CC2)cc1	inconclusive: -58.6%
CCOc1ccc(/C=N/n2c(C)nnc2C)cc1OC	inactive: 37.6%
O=C(Nc1ccc(F)cc1)NC1CCN(Cc2ccccc2)CC1	inconclusive: -46.6%
O=S(=O)(CCc1nc2ccccc2[nH]1)c1ccc(Br)cc1	inconclusive: -45.3%
COc1cc(Cl)ccc1OCc1cc(C(=O)NCC(C)(C)N2CCOCC2)no1	inactive: 24.8%
O=C(O)c1ccccc1N=Cc1c(O)n(-c2nccs2)c(=O)c2ccccc12	inconclusive: -40.9%
Cc1ccc(F)cc1NC(=O)N1CCN(c2ccnc3cc(Cl)ccc23)CC1	active: -68.7%
